Results: the supplement of paper PMC8975748
Counter-ions that a name gives are not always drawn. ± gives the standard deviation of the averaged measurements. This is one part of the list. Values are raw readings; no control value is given beside them.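 A single yeast strain with four plasmids, each encoding a fluorescent protein and an amino-acid or uracil biosynthesis gene, seeds the community. Stochastic plasmid loss yields mixed prototroph and auxotroph subpopulations. Fixed cells were counted via automated confocal fluorescence imaging; DMSO-treated wells were the vehicle reference.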

System: Saccharomyces cerevisiae BY4741 SeMeCo community
Experiment: imaged cell count per well (cells); higher = more cells
Details: 10 µM; 24 h; SM minimal medium
Procedure: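 Same SeMeCo high-content imaging drug screen: Selleck FDA-approved drugs at 10 µM, 24 h in SM medium, 384-well plates, 3 replicates.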

Structure (SMILES) | imaged cell count per well
CCn1cc(C(=O)O)c(=O)c2cnc(N3CCNCC3)nc21 [Pipemidic acid] | 23500 ± 6900
COc1ccc(C(=O)NCc2ccc(OCCN(C)C)cc2)cc1OC [Itopride hydrochloride] | 23400 ± 4700
COc1ccc2cc3[n+](cc2c1OC)CCc1cc2c(cc1-3)OCO2 [Berberine Sulfate] | 23000 ± 4400
CC1(C)[C@H](C(=O)O)N2C(=O)C[C@H]2S1(=O)=O [Sulbactam] | 28300 ± 1600
CN1CCC(=C2c3ccccc3C=Cc3ccccc32)CC1 [Cyproheptadine hydrochloride] | 20500 ± 1700
CN(C)[C@@H]1C(O)=C(C(N)=O)C(=O)[C@@]2(O)C(O)=C3C(=O)c4c(O)ccc(Cl)c4[C@@](C)(O)[C@H]3C[C@@H]12 [Chlortetracycline HCl] | 22500 ± 1300
C[C@H]1COc2c(C3(N)CC3)c(F)cc3c(=O)c(C(=O)O)cn1c23 [Pazufloxacin mesylate] | 21000 ± 10000
CCOc1ccc2ccccc2c1C(=O)N[C@@H]1C(=O)N2[C@@H]1SC(C)(C)[C@@H]2C(=O)O [Nafcillin Sodium] | 29300 ± 7300
Cn1nnnc1SCC1=C(C(=O)O)N2C(=O)[C@@H](NC(=O)[C@H](OC=O)c3ccccc3)[C@H]2SC1 [Cefamandole nafate] | 21500 ± 10000
C=CCN1CCCC1CNC(=O)c1cc2nn[nH]c2cc1OC (configuration not stated) [Alizapride HCl] | 23700 ± 9000
COc1c(N2CCNC(C)C2)c(F)cc2c(=O)c(C(=O)O)cn(C3CC3)c12 (configuration not stated) [Gatifloxacin] | 24000 ± 3000
Nc1nc(O)c2ncn(CCC(CO)CO)c2n1 [Penciclovir] | 26700 ± 14000

A different layout for some results above.
Structure (SMILES)	imaged cell count per well
Cn1nnnc1SCC1=C(C(=O)O)N2C(=O)[C@@H](NC(=O)[C@H](OC=O)c3ccccc3)[C@H]2SC1 [Cefamandole nafate]	21500 ± 10000
C=CCN1CCCC1CNC(=O)c1cc2nn[nH]c2cc1OC (configuration not stated) [Alizapride HCl]	23700 ± 9000
